No constants are given. Whether binding was seen depends on the method and setting. Binding seen in cells or lysates may run through a third protein. Some binding calls cover weakened binding; strength is not graded here. For part of these data: Where a sequence is shown, tags or fusion partners need not be part of it.
How the values were obtained:
Test in all cases: pull-down; GST fusion immobilised on glutathione-sepharose beads, incubated overnight at 4°C with 500 μl lysate of HeLa cells expressing a 3xFlag-EGFP-BDCP; washed six times in 50 mM Tris-HCl pH 7.4, 150 mM NaCl, 1% Triton X-100; bound protein detected with anti-flag antibody; only the target purified
[1] = target: GST-CTLA4 (201–215) (human) (UniProt P16410)
[2] = target: GST-CTLA4(187–223) (human) (UniProt P16410)
[3] = target: T1, GST-TGFBR3(810–851) (human) (UniProt Q03167)
T1 sequence: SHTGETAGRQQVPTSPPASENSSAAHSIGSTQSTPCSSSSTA

The chains behind the UniProt entries cited, without tags or fusion partners. Where a name states a change or a piece, a line headed by the entry shows the natural chain unless it says otherwise. Residues count along the entry.
UniProt P16410, residues 187-223: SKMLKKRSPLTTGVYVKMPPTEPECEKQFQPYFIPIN
UniProt P22455, residues 388-802: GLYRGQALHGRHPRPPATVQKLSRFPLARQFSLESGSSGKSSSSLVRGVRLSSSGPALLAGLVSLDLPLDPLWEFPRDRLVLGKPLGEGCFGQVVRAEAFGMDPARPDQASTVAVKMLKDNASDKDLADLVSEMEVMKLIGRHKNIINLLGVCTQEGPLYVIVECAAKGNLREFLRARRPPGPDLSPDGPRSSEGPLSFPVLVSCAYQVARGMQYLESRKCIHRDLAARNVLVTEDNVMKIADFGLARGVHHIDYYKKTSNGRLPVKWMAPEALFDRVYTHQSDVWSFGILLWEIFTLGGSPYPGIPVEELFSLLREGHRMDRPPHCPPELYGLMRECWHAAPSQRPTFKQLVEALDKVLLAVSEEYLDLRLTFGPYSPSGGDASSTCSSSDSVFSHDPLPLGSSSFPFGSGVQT
UniProt P78504, residues 1093-1218: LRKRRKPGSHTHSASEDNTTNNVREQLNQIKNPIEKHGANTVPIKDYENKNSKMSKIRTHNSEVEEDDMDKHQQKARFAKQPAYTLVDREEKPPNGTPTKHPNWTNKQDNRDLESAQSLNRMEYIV
UniProt Q15375, residues 579-998: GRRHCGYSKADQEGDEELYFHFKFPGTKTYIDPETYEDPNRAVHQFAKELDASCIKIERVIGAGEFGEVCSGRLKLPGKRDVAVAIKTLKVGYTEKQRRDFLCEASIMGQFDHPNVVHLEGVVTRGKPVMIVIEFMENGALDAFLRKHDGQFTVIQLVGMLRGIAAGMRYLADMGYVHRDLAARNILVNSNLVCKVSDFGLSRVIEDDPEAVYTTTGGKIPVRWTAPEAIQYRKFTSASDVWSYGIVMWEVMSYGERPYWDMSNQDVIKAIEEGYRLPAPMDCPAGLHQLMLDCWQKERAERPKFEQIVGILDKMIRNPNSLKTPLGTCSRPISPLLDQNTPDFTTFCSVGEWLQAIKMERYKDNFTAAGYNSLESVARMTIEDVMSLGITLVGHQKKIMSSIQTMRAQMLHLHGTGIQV

[4] = target: GST-FGFR4(388–802) (human) (UniProt P22455)
[5] = target: T2, GST-SDK1(2031–2213) (human) (UniProt Q7Z5N4)
T2 sequence: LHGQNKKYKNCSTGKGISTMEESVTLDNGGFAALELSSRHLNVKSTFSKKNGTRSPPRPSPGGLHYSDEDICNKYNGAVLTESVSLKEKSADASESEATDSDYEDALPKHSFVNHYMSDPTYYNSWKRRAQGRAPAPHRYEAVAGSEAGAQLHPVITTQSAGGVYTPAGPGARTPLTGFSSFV

[6] = target: GST-JAG1(1093–1218) (human) (UniProt P78504)
[7] = target: T3, GST-FLRT2(563–660) (human) (UniProt O43155)
T3 sequence: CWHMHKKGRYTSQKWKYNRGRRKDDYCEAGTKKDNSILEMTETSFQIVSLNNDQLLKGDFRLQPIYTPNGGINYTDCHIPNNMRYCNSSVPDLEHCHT

[8] = target: GST-CTLA4(201–215)M204A (human) (UniProt P16410)
[9] = target: GST-EPHA7(579–998) (human) (UniProt Q15375)
[10] = target: GST-CTLA4(201–215)Y201A (human) (UniProt P16410)
[11] = target: T4, GST-ROBO2(883–1378) (human) (UniProt Q9HCK4)
T4 sequence: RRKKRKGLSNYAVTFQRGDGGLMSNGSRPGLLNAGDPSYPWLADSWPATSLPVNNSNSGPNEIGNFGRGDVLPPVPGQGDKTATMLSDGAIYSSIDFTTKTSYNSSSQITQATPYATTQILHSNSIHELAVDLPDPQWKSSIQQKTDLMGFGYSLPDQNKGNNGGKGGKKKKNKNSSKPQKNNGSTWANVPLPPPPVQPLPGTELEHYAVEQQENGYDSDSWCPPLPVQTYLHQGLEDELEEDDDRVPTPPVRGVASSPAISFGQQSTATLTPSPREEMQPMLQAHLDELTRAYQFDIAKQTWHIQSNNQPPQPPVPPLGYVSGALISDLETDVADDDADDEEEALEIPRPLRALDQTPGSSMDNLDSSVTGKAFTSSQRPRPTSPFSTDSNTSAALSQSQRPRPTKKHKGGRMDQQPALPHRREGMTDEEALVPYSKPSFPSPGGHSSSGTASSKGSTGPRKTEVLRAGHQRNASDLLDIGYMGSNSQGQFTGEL

[12] = target: T5, GST-EFNB2(251–333) (human) (UniProt P52799)
T5 sequence: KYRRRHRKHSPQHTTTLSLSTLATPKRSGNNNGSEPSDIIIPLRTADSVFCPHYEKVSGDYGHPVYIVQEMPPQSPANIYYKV

Measured: binding

3xFlag-EGFP-NBEAL2 (from UniProt Q6ZNJ1-1 1-2754)
binds: [1]

3xFlag-EGFP-LRBA (from UniProt P50851-1 1-2863)
binds: [1]

3xFlag-EGFP-ALFY (from UniProt Q8IZQ1-1 1-3526)
binds: [2] | [3] | [4] | [5] | [6] | [7] | [8] | [9] | [10] | [11] | [12] | [1]

3xFlag-EGFP-LYST (from UniProt Q99698-1 1-3801)
binds: [1]

Reference: article PMC11554844, “BEACH domain proteins function as cargo-sorting adaptors in secretory and endocytic pathways” (The Journal of Cell Biology, 2024)
